Source: PubChem BioAssay AID743121 (NCATS, 2013)

- Aim: 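Partners whose loss is lethal together with topoisomerase I blockade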 (primary screen)
- Cells: MDA-MB-231 cells, a human breast cancer line
- Reagent: single siRNA against human genes, 20 nM siRNA (0.8 pmol per well)
- Timing: 120 h (drug added 48 h after transfection, read 72 h later)
- Treatment: camptothecin 20 nM (about EC30) for 72 h; vehicle 0.1% DMSO in parallel plates
- Measured: 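CellTiter-Glo ATP signal, scaled to control siRNA as percent viability; sensitisation given as log2 of untreated divided by camptothecin-treated viability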
- Scale: log2 vehicle/camptothecin viability: higher = stronger sensitisation to camptothecin; viability with camptothecin and viability without drug: higher = more viable cells
- Active means: 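Each gene scored by redundant siRNA activity (RSA) over its individual siRNA ratios; a gene is called active at p < 0.001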
Shown is a random part of about 26,000 deposited reagents. 167 of all reagents (0.63%) were called active. 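Calls are per gene from RSA p-values that are not deposited; an individual active-marked siRNA can sensitise only weakly.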 A number with no mark means an inactive call. The numbers tell different reagents against one gene apart.

Target gene	reagent	log2 vehicle/camptothecin viability	viability with camptothecin (% of control)	viability without drug (% of control)
TRIM22 (tripartite motif containing 22)	1	-0.21	48.9	42.3
TRIM22 (tripartite motif containing 22)	2	-0.132	115	105
TRIM22 (tripartite motif containing 22)	3	-0.985	65.5	33.1
TRIM22 (tripartite motif containing 22)	4	-0.102	76.6	71.4
LDLR (low density lipoprotein receptor)	1	-0.0937	67.9	63.6
LDLR (low density lipoprotein receptor)	2	-0.53	75.5	52.3
LDLR (low density lipoprotein receptor)	3	-0.689	51.5	32
LDLR (low density lipoprotein receptor)	4	-0.307	95.5	77.2
UNC5A (unc-5 netrin receptor A)	1	0.104	50.3	54.1
UNC5A (unc-5 netrin receptor A)	2	0.391	60.8	79.8
UNC5A (unc-5 netrin receptor A)	3	0.0238	64.8	65.9
UNC5A (unc-5 netrin receptor A)	4	-0.00536	99.5	99.1
MMP28 (matrix metallopeptidase 28)	1	-0.059	107	103
MMP28 (matrix metallopeptidase 28)	2	-0.277	127	105
MMP28 (matrix metallopeptidase 28)	3	-0.521	59.3	41.3
MMP28 (matrix metallopeptidase 28)	4	0.0187	88	89.1
MMP28 (matrix metallopeptidase 28)	5	-0.332	73.4	58.3
MMP28 (matrix metallopeptidase 28)	6	0.0992	106	114
TICAM1 (TIR domain containing adaptor molecule 1)	1	-0.508	77.6	54.6
TICAM1 (TIR domain containing adaptor molecule 1)	2	0.0872	52.5	55.7
TICAM1 (TIR domain containing adaptor molecule 1)	3	0.704	30.6	49.9
KDM4A (lysine demethylase 4A)	1	-0.18	110	97.3
KDM4A (lysine demethylase 4A)	2	-0.41	21.7	16.3
KDM4A (lysine demethylase 4A)	3	-0.0104	45.9	45.6
KDM4A (lysine demethylase 4A)	4	-0.528	41.3	28.7
TNFAIP2 (TNF alpha induced protein 2)	1	-0.195	101	88.4
TNFAIP2 (TNF alpha induced protein 2)	2	-0.106	53.2	49.4
TNFAIP2 (TNF alpha induced protein 2)	3	-0.551	53.9	36.8
TNFAIP2 (TNF alpha induced protein 2)	4	-0.0531	123	118
STK10 (serine/threonine kinase 10)	1	-0.0694	78.8	75.1
STK10 (serine/threonine kinase 10)	2	-0.115	39.3	36.3
STK10 (serine/threonine kinase 10)	3	-0.0941	43.1	40.4
STK10 (serine/threonine kinase 10)	4	-0.178	52.9	46.7
CHRM5 (cholinergic receptor muscarinic 5)	1	0.114	72.6	78.6
CHRM5 (cholinergic receptor muscarinic 5)	2	0.494	18.9	26.6
CHRM5 (cholinergic receptor muscarinic 5)	3	0.0227	71.6	72.7
CHRM5 (cholinergic receptor muscarinic 5)	4	0.0275	81	82.5
OR7D2 (olfactory receptor family 7 subfamily D member 2)	1	-0.448	81	59.4
OR7D2 (olfactory receptor family 7 subfamily D member 2)	2	-0.138	95.7	86.9
OR7D2 (olfactory receptor family 7 subfamily D member 2)	3	-0.32	134	107
OR7D2 (olfactory receptor family 7 subfamily D member 2)	4	-0.563	82.5	55.9
CYP27B1 (cytochrome P450 family 27 subfamily B member 1)	1	-0.275	98.1	81.1
CYP27B1 (cytochrome P450 family 27 subfamily B member 1)	2	-0.125	120	110
CYP27B1 (cytochrome P450 family 27 subfamily B member 1)	3	-0.108	93.3	86.6
CYP27B1 (cytochrome P450 family 27 subfamily B member 1)	4	0.367	58.8	75.8
KISS1 (KiSS-1 metastasis suppressor)	1	0.155	62.9	70
KISS1 (KiSS-1 metastasis suppressor)	2	0.327	32.7	41
KISS1 (KiSS-1 metastasis suppressor)	3	-0.675	34.1	21.4
KISS1 (KiSS-1 metastasis suppressor)	4	0.0546	64.8	67.3
PGF (placental growth factor)	1	-0.857	47.9	26.4
PGF (placental growth factor)	2	-0.0196	103	102
PGF (placental growth factor)	3	-0.169	90.4	80.4
PGF (placental growth factor)	4	-0.437	102	75.4
FBXO17 (F-box protein 17)	1	0.725	23.8	39.3
FBXO17 (F-box protein 17)	2	-0.219	81.3	69.9
FBXO17 (F-box protein 17)	3	-0.0674	79.3	75.6
FBXO17 (F-box protein 17)	4	0.25	95.8	114
NHERF1 (NHERF family PDZ scaffold protein 1)	1	-0.279	65.9	54.3
NHERF1 (NHERF family PDZ scaffold protein 1)	2	-0.156	88.6	79.5
NHERF1 (NHERF family PDZ scaffold protein 1)	3	-0.516	118	82.2
NHERF1 (NHERF family PDZ scaffold protein 1)	4	-0.275	44.2	36.5
CNBP (CCHC-type zinc finger nucleic acid binding protein)	1	-0.522	58	40.4
CNBP (CCHC-type zinc finger nucleic acid binding protein)	2	-0.362	83.2	64.7
CNBP (CCHC-type zinc finger nucleic acid binding protein)	3	-0.0417	101	98
NCOA4 (nuclear receptor coactivator 4)	1	0.0023	101	101
NCOA4 (nuclear receptor coactivator 4)	2	-0.0696	75.4	71.8
NCOA4 (nuclear receptor coactivator 4)	3	0.515	44.9	64.1
NCOA4 (nuclear receptor coactivator 4)	4	0.0114	55.8	56.2
PDE3A (phosphodiesterase 3A)	1	-0.197	108	94.1
PDE3A (phosphodiesterase 3A)	2	-0.171	107	95.5
PDE3A (phosphodiesterase 3A)	3	0.239	67.4	79.5
ALDH1A3 (aldehyde dehydrogenase 1 family member A3)	1	0	121	121
ALDH1A3 (aldehyde dehydrogenase 1 family member A3)	2	-0.202	83.6	72.7
ALDH1A3 (aldehyde dehydrogenase 1 family member A3)	3	0.116	82.5	89.3
HMGB2 (high mobility group box 2)	1	0.0855	42.1	44.6
HMGB2 (high mobility group box 2)	2	-0.0163	93.8	92.7
HMGB2 (high mobility group box 2)	3	0.0146	56.7	57.3
HMGB2 (high mobility group box 2)	4	-0.286	49.8	40.9
CTNNAL1 (catenin alpha like 1)	1	-0.134	109	99.7
CTNNAL1 (catenin alpha like 1)	2	-0.12	115	106
CTNNAL1 (catenin alpha like 1)	3	-0.278	90.8	74.8
CTNNAL1 (catenin alpha like 1)	4	-0.445	125	92
PRDX6 (peroxiredoxin 6)	1	1.2	38.1	87.6
PRDX6 (peroxiredoxin 6)	2	-0.0594	110	106
PRDX6 (peroxiredoxin 6)	3	-0.32	56.6	45.3
PRDX6 (peroxiredoxin 6)	4	0.187	69.6	79.3
ESAM (endothelial cell adhesion molecule)	1	-0.0301	106	104
ESAM (endothelial cell adhesion molecule)	2	0.134	56.8	62.3
ESAM (endothelial cell adhesion molecule)	3	-0.382	101	77.3
ESAM (endothelial cell adhesion molecule)	4	0.542	33.1	48.2

As entered above:
Value for CYP27B1 (cytochrome P450 family 27 subfamily B member 1) #1 in “viability without drug (% of control)”: 81.1
ALDH1A3 (aldehyde dehydrogenase 1 family member A3) #3, viability with camptothecin (% of control) = 82.5
PRDX6 (peroxiredoxin 6) #3, log2 vehicle/camptothecin viability = -0.32
Entry for UNC5A (unc-5 netrin receptor A) #1 in “viability with camptothecin (% of control)”: 50.3
Entry for NCOA4 (nuclear receptor coactivator 4) #3 under “viability without drug (% of control)”: 64.1
